Data taken from PMC5504357, “Antifungal Potential of Copper(II), Manganese(II) and Silver(I) 1,10-Phenanthroline Chelates Against Multidrug-Resistant Fungal Species Forming the Candida haemulonii Complex: Impact on the Planktonic and Biofilm Lifestyles” (Frontiers in Microbiology, 2017).

System: A549 cells
Assay: Mammalian cell toxicity (MTT assay) and selectivity index
Assay type: cell-based, Human
Details: for C. duobushaemulonii (SI) / C. haemulonii (SI) / C. haemulonii var. vulnera (SI): CC50/GM-MIC; for Overall mean (SI): mean of the SI values against the three species, ratio CC50 / MIC
Excerpt: Three clinical isolates of each species that form the C. haemulonii complex were used in this study: C. haemulonii (LIPCh4 from finger nail, LIPCh7 from toe nail, and LIPCh12 from blood), C. duobushaemulonii (LIPCh1 from finger nail, LIPCh6 from toe nail, and LIPCh8 from blood) and C. haemulonii var. vulnera (LIPCh5 from toe nail, LIPCh9 from urine, and LIPCh11 from blood) (Ramos et al., [2015]). The fungal isolates were identified by the automatized system VITEK® 2 and then characterized by ITS1-5.8S-ITS2 gene sequencing (Ramos et al., [2015]). Fungal cells were cultured in Sabouraud-dextrose medium under constant agitation (130 rpm) for 48 h at 37°C. Human lung adenocarcinoma A549 cells were maintained in culture flasks containing DMEM medium supplemented with 10% fetal bovine serum at 37°C in an atmosphere of 5% CO2.
The cytotoxicity was evaluated using the MTT [3-(4,5-dimethylthiazol-2-yl)-2,5-diphenyl tetrazolium bromide] (Sigma-Aldrich) assay (Mosmann, [1983]). A549 cells (10^4) were seeded into tissue culture plates (TPP, Switzerland) and cultured for 24 h at 37°C in a 5% CO2 in order to obtain cellular confluence. The wells were then washed twice with DMEM to remove non-adherent cells and the test compounds were added (in concentrations ranging from 0.0313 to 512 μg/mL) to plates containing DMEM, followed by a 48 h incubation period under the same conditions mentioned above. The cellular viability was evaluated by adding MTT to each well and incubating the plates in the dark for 3 h, allowing the viable cells containing active mitochondrial dehydrogenase enzymes to metabolize MTT-tetrazolium salt into purple formazan. The formazan crystals were then dissolved in DMSO (100 μL) and the absorbance (450 nm) measured using a Thermomax Molecular Device microplate reader. The concentration capable of reducing cellular viability by 50% (CC50) was calculated, and the selectivity index (SI) determined using the following equation: A549 CC50/C. haemulonii complex GM-MIC.

Row | SMILES | C. duobushaemulonii (SI) | C. haemulonii (SI) | C. haemulonii var. vulnera (SI) | Overall mean (SI)
1 | O.O.O.O.O.O.O.O.O.O.O.O.O.O.O.O.O=C([O-])c1cccc(C(=O)[O-])c1.O=C([O-])c1cccc(C(=O)[O-])c1.[Mn+2].[Mn+2].c1cnc2c(c1)ccc1cccnc12.c1cnc2c(c1)ccc1cccnc12.c1cnc2c(c1)ccc1cccnc12.c1cnc2c(c1)ccc1cccnc12.c1cnc2c(c1)ccc1cccnc12 [compound 11, {[Mn(phen)2(H2O)2]}2(isoph)2(phen).12H2O] | 99.91 | 99.91 | 99.91 | 99.91
2 | CCO.O.O.O.O.O.O.O=C([O-])c1cccc(C(=O)[O-])c1.[Cu+2].c1cnc2c(c1)ccc1cccnc12.c1cnc2c(c1)ccc1cccnc12 [compound 3, [Cu(isoph)(phen)2].6H2O.EtOH] | 0.18 | 0.09 | 0.14 | 0.14
3 | [Cl][Mn][Cl] [MnCl2, reference compound] | >4.18 | >4.18 | >4.18 | >4.18
4 | O=[N+]([O-])[O-].[Ag+] [AgNO3, reference compound] | 26.95 | 21.39 | 33.96 | 27.43
5 | O.O.O.O.O=C([O-])c1cccc(C(=O)[O-])c1.O=C([O-])c1cccc(C(=O)[O-])c1.[Mn+2].[Mn+2].c1cnc2c(c1)ccc1cccnc12.c1cnc2c(c1)ccc1cccnc12.c1cnc2c(c1)ccc1cccnc12 [compound 10, [Mn2(isoph)2(phen)3].4H2O] | 40.30 | 40.30 | 63.97 | 48.19
